Results of single-concentration screens

Amino acid sequences for entries named in this document (tags omitted). Residues count along the entry.
UniProt P9WFT3, whole entry: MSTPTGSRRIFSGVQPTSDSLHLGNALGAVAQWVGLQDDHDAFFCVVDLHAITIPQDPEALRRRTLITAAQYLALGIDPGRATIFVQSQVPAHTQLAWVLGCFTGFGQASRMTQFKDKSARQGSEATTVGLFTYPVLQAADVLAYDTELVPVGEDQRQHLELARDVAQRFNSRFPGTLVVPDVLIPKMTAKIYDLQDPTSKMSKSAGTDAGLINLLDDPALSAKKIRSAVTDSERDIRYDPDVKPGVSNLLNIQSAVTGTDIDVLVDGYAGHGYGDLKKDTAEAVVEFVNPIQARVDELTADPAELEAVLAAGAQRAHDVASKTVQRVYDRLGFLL
UniProt Q4DA54, 1-478: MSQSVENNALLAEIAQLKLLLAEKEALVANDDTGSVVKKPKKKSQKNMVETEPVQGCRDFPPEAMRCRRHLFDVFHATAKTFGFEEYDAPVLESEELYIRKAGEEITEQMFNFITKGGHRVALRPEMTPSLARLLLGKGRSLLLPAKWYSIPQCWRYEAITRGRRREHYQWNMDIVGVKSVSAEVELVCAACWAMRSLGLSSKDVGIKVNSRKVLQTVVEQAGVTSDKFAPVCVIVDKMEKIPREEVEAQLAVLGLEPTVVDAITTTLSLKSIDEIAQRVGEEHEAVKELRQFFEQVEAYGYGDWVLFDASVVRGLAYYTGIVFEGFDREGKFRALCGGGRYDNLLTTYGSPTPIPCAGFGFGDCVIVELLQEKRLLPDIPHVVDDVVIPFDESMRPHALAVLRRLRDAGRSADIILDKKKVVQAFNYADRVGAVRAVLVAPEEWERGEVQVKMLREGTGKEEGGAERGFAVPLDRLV
UniProt Q8IDJ8, 1-583: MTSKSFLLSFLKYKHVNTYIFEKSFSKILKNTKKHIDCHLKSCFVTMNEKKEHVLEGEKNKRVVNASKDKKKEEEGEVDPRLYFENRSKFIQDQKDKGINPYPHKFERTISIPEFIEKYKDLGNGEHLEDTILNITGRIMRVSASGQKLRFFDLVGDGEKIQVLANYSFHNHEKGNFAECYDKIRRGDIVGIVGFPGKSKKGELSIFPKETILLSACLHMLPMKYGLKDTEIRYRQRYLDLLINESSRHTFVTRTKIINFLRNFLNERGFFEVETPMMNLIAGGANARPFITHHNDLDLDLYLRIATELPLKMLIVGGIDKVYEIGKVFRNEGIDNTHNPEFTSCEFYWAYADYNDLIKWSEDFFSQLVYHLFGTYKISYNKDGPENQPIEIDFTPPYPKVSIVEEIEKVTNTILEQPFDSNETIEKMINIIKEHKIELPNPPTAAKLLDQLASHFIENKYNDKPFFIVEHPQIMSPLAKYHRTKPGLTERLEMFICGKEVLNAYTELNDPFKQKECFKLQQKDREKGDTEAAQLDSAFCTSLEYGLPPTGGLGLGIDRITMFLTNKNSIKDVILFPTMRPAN
UniProt P9WNZ1, whole entry: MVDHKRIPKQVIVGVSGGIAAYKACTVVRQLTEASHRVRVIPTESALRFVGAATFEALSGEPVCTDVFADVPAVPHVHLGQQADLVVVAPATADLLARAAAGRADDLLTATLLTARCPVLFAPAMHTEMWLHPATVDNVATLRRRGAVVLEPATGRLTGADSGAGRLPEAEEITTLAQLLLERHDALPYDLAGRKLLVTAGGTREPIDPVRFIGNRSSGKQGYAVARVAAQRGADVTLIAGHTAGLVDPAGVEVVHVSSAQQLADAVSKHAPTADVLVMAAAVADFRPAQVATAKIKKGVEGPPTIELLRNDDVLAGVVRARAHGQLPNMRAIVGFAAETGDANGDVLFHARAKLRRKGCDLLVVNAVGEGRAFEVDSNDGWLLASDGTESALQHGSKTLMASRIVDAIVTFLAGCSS
UniProt I6X8D2, whole entry: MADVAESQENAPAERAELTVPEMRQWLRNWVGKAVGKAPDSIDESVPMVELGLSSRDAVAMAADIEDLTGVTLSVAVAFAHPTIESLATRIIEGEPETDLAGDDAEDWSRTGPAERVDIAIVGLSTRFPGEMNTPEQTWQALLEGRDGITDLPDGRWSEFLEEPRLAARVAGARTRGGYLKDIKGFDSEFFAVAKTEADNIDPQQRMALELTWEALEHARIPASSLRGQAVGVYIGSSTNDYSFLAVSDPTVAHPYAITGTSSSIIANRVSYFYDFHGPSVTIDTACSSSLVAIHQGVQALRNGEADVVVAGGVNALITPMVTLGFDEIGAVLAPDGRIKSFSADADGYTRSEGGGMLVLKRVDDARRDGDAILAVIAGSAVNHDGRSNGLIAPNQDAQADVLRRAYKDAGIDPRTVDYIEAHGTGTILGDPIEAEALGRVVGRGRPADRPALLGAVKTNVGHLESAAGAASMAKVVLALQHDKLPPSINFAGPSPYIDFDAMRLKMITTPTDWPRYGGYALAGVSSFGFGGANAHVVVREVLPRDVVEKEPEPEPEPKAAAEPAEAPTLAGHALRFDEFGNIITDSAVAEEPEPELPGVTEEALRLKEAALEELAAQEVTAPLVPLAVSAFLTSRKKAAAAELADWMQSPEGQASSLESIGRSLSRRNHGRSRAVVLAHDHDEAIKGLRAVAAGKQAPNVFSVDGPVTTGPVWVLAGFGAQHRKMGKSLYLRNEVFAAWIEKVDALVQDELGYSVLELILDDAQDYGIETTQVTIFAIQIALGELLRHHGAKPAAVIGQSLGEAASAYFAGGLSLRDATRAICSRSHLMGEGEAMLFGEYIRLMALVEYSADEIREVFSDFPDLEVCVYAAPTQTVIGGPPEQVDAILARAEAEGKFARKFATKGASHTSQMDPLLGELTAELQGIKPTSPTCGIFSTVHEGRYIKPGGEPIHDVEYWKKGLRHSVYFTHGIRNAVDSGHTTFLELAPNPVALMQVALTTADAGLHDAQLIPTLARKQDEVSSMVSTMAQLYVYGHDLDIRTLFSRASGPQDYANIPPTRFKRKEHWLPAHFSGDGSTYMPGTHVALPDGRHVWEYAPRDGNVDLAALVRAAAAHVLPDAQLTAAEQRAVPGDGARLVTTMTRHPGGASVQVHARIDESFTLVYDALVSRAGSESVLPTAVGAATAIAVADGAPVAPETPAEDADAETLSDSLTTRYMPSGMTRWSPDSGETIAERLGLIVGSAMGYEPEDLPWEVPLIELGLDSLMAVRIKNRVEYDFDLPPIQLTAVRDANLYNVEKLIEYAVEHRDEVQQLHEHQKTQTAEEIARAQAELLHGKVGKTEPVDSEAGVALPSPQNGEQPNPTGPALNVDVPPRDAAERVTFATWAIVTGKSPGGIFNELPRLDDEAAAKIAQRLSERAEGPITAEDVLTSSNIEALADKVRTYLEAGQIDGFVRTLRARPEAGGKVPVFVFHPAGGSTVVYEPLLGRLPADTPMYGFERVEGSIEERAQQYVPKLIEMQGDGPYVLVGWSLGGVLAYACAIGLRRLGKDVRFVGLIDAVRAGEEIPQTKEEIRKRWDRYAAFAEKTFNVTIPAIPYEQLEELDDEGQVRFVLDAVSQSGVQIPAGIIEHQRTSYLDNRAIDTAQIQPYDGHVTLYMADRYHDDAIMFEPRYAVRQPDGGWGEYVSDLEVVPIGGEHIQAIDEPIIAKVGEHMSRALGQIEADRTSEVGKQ

Source: ChEMBL document CHEMBL3988442, “University of Dundee, Small-Polar-MMV Screening Library” (2021).

Each number is a percent effect as filed. The record does not define 0% and 100%; most values in the screen are far below 50% and negative numbers occur (in some assays of this library far below -100). Compounds were drawn at random from those tested, without regard to their results. Two or more numbers in one place are separate tests of the same structure; such repeats can differ widely. A dash means the value is not listed here; it may have been measured.

MtTrpRS: 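Enzyme assay of tryptophanyl-tRNA synthetase; the read-out is not stated. Target: Tryptophan-tRNA ligase, Mycobacterium tuberculosis (UniProt P9WFT3). Concentration: 10 µM. Higher most likely means stronger inhibition; the record gives no direction and few retests gave an IC50. Of about 65,000 compounds tested this way, about 64 (0.098%) reached 50% or more in at least one test.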
TcHisRS: 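Enzyme assay of histidyl-tRNA synthetase; the read-out is not stated. Target: Histidine-tRNA ligase, Trypanosoma cruzi CL Brener (UniProt Q4DA54). Tested at 30 µM. The record gives no direction; compounds that gave an IC50 in retests scored well above the rest, so higher reads as stronger inhibition. Size under these conditions: about 69,000 compounds, about 31 of them at 50% or above in at least one test.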
PfKRS1: 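Lysine-tRNA ligase, Plasmodium falciparum 3D7 (UniProt Q8IDJ8). Enzyme assay of the cytosolic lysyl-tRNA synthetase in 384-well plates, read by luminescence. Concentration: 30 µM. Higher reads as stronger inhibition, judged from the few compounds that gave an IC50. About 69,000 compounds were tested under these conditions; 0.071% (about 49) showed 50% or more at least once.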
CoaBC: 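Coenzyme A biosynthesis protein CoaBC, Mycobacterium tuberculosis (UniProt P9WNZ1). Enzyme assay of CoaBC with a phosphate dye (Biomol Green) read at 650 nm. Tested at 30 µM. Direction is inferred from only a few compounds that gave an IC50; most scored high, so higher reads as stronger inhibition. Most strong results did not repeat in a second test. About 67,000 compounds were tested under these conditions; 0.06% (about 40) showed 50% or more at least once.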
Pks13 thioesterase: 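Enzyme assay of the thioesterase domain of polyketide synthase 13; the read-out is not stated. Target: Polyketide synthase Pks13, Mycobacterium tuberculosis (UniProt I6X8D2). Compounds at 30 µM. The record gives no direction; the compounds picked for IC50 retests had high values, so higher reads as stronger inhibition. Size under these conditions: about 67,000 compounds, about 300 of them at 50% or above in at least one test.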
Leishmania in macrophages: 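Cell assay of Leishmania donovani living inside macrophages; the read-out is not stated. Compounds at 30 µM. The record gives no direction; compounds that gave an IC50 in retests scored well above the rest, so higher reads as stronger inhibition. About 69,000 compounds were tested under these conditions; 1.5% (about 1,000) showed 50% or more at least once.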

| compound | MtTrpRS | TcHisRS | PfKRS1 | CoaBC | Pks13 thioesterase | Leishmania in macrophages |
|---|---|---|---|---|---|---|
| `COc1c(CNC2CCCOc3ccc(F)cc32)c(C)nn1C` (stereo not drawn) | -2.678 | 3.175 | 1.885 | 4.931 | -30.07 | - |
| `Cn1cc(CN2CC[C@@H]3[C@@H]2CCN3C(=O)Cc2cccc(F)c2)cn1` | -1.744 | 7.143 | 2.424 | 2.349 | -2.126 | - |
| `Cc1nnc(N2C[C@H](OCCCn3cccn3)[C@H]3OCCC[C@H]32)s1` | 2.059 | -1.493 | 6.885 | 18.27 | -20.41 | - |
| `CC1=NN(c2ccc(C(=O)N3CCCC(n4ccnc4)C3)cc2)CC1` (stereo not drawn) | 1.81 | 5.263 | 4.871 | 3.342 | -74.58 | 12.76 |
| `Cc1oc(C(=O)O)cc1S(=O)(=O)Nc1ccc(Br)cc1Cl` | -0.2921 | 1.149 | -0.101 | 0.9032 | -0.8365 | -1.281 |
| `CN1C[C@@H](C(=O)NCC(F)(F)F)[C@@]2(CCc3ccccc3C(=O)N2)C1` | 7.681 | 4.215 | 2.039 | -9.709 | -14.7 | 22.86 |
| `CN1CCCC2(CCN(C(=O)Cc3cc4c(cc3Cl)OCCO4)C2)C1=O` (stereo not drawn) | -1.554 | 5.419 | -0.2208 | -0.6452 | 11.98 | -5.138 |
| `O=C(c1coc(COc2cccc(F)c2)n1)N1CC[C@H](O)[C@@H](O)C1` | -0.0774 | 4.167 | -3.747 | -1.066 | -12.43 | 16.19 |
| `COc1ccc(-c2cnc(CN3CCCC3Cn3cccn3)o2)cc1` (stereo not drawn) | -0.6489 | 13.26 | 0.9982 | -45 | 11.09 | 18.68 |
| `c1ccc(C2CCCN(c3cncc(-n4cccn4)n3)CC2)cc1` (stereo not drawn) | -3.177 | 8.621 | 2.146 | -3.571 | -14.4 | 12.57 |
| `CCOc1cccc(C(=O)Nc2ccncc2)c1` | 0.6785 | 1 | -3.14 | -0.6588 | -19.94 | 18.73 |
| `COc1c(CNCc2cccnc2N2CCN(C)CC2)c(C)nn1C` | 2.061 | 0 | -0.08031 | 4.362 | 3.239 | 29.27 |
| `CCS(=O)(=O)N1C[C@@H](O)[C@H](Oc2cccc(F)c2)C1` | -2.185 | 6.513 | -0.5677 | 1.942 | -0.585 | 14.66 |
| `O=C(O)C(F)(F)F.[H][C@@]12CCN(CCc3ccccc3)C[C@]1([H])O[C@@H](C(=O)NCCOC)C2` | - | - | - | - | - | 34.91 |
| `O=C(NC1CC1)N1CCCC2(CCNC2=O)C1` (stereo not drawn) | -2.506 | 0.9709 | 2.57 | 6.616 | -20.97 | -3.577 |
| `Cc1occc1C(=O)N1CCC2(CC1)CC(OCc1ccccn1)CO2` (stereo not drawn) | 12.51 | 8.824 | -7.165 | -1.5 | -48.66 | - |
| `Cc1noc(C(C)C)c1C(=O)NS(=O)(=O)c1ccc(Cl)cc1` | 0.7415 | 4.348 | 5.212 | 3.914 | -42.89 | -18.48 |
| `CC(C)c1csc(C2CCCN(C(=O)c3ccc[nH]3)C2)n1` (stereo not drawn) | 1.589 | 3.012 | -0.6737 | 2.561 | -18.43 | -21.56 |
| `Cn1ccnc1CNc1nccc(-c2ncnn2C)n1` | 0.6173 | 3.571 | -2.387 | 5.147 | -15.51 | 10.31 |
| `CCc1nc(CNC(C)(CO)C2CCCCC2)no1` (stereo not drawn) | -0.1468 | 2 | -2.745 | 6.116 | 14.38 | -14.58 |
| `Cc1noc(C)c1CN(C)C(=O)NC(C)Cc1ccco1` (stereo not drawn) | -2.611 | 5.978 | 7.002 | 2.479 | -5.093 | 7.338 |
| `COCCN1CCCC(c2nc(C)n3c(C)c(C)sc23)C1` (stereo not drawn) | -1.101 | 10.45 | 2.204 | 2.19 | 15.71 | -2.723 and 20.04 |
| `CCN(C(=O)CCCOc1ccccc1F)c1ccncc1` | 2.648 | 3.261 | 7.162 | -4.723 | -35.14 | 5.589 |
| `CCOCc1ccc(NC(=O)N2CCOC3(CCC3)C2)cc1` | -5.624 | 2.762 | -1.856 | 2.93 | -21.1 | -4.354 |
| `COc1c(C2CCCN2C(=O)c2ccc(C(N)=O)s2)c(C)nn1C` (stereo not drawn) | -1.738 | 8.287 | 5.748 | -0.1274 | -8.928 | 12.24 |
| `Cc1nccn1-c1cncc(C2CCCN2Cc2ccccc2)n1` (stereo not drawn) | - | 8.791 | 1.042 | 0 | -17.14 | -9.939 and 11.59 |
| `O=C(O)C(F)(F)F.O=C(O)C(F)(F)F.[H][C@@]12COC[C@]1(COCC1CCOCC1)CN(Cc1ccccn1)C2` | - | - | - | - | - | 18.9 and 10.26 |
| `Cc1nc(CN2Cc3nccn3CC(COCC3CC3)C2)cs1.O=C(O)C(F)(F)F` (stereo not drawn) | - | - | - | - | - | -10.97 |
| `Cc1cccc(S(=O)(=O)N2Cc3c(CN(C)C)nn(C)c3C2)c1` | -1.673 | 7.527 | 1.858 | -20.84 | -31.43 | 23.99 and 4.436 |
| `Cc1ccccc1C(C(=O)NCc1nc(-c2ncccn2)no1)N(C)C` (stereo not drawn) | -1.917 | 8.28 | 1.551 | - | -14.43 | 5.779 |
| `COc1cccc(CCCN2CCC(N(C)S(C)(=O)=O)CC2)c1` | -5.326 | 4.545 | 6.519 | 1.814 | -11.58 | -7.519 |
| `Cc1noc(C)c1C(=O)NCCN1CCN(S(C)(=O)=O)CC1` | 1.19 | 5.946 | 2.936 | 11.36 | -24.39 | 21.23 |
| `NC(=O)C1CCC(NC(=O)COc2ccc(Cl)c(Cl)c2)CC1` (stereo not drawn) | 0.07337 | 1.901 | 4.199 | 1.054 | -6.001 | 9.437 |
| `O=C(O)c1coc(COc2cccc(F)c2)n1` | -7.209 | -0.8475 | -3.568 | -7.93 | -8.61 | -3.562 |
| `O=C(NCC1=CCCCC1)C(c1cccnc1)N1CCCC1` (stereo not drawn) | 50.98 | 0 | -5.99 | -4.555 | -1.496 | 1.883 |
| `CCn1ncnc1CN(CCOC)Cc1ccc(C)cc1` | 0.9356 | 6.145 | 4.305 | 0.8065 | 6.255 | 3.766 |
| `COc1cccc(CNC(C)c2ccc(-n3ccnc3)cc2)c1OC.Cl` (stereo not drawn) | - | - | - | - | - | 6.221 |
| `O=C(c1ccoc1)N1C[C@@H]2CN(c3ncccn3)C[C@@H]2C1` | 1.647 | 4.598 | 4.583 | -6.352 | -30.22 | - |
| `Cc1nc(N(C)C)nc2c1COCC21CCN(C(=O)C2CC2)C1` (stereo not drawn) | 1.696 | 5 | 5.639 | 1.186 | -8.38 | 17.88 |
| `Cc1ccc(N2CCC3(CCN(C(=O)c4ccsc4)CC3)CC2)nn1` | -1.256 | 4 | 7.689 | 2.76 | -8.289 | 22.41 |
| `COCCN1CCc2ncc(CNc3cc(N(C)C)ncn3)n2CC1` | 4.554 | 6.135 | -1.554 | - | -29.35 | 12.51 |
| `CS(=O)(=O)N1CCCC(C(=O)Nc2cnn(Cc3ccc(F)cc3)c2)C1` (stereo not drawn) | - | 6.936 | 3.384 | -2.086 | 9.988 | 18.09 |
| `O=C(N1CCCO1)[C@]12COC[C@H]1CN(Cc1nccs1)C2` | -0.07052 | 6.952 | 3.693 | 2.083 | -20.15 | - |
| `CC(C)c1nc(C2CCCN2Cc2ccncc2Cl)no1` (stereo not drawn) | 5.745 | 1.724 | 0.8151 | 0.129 | -22.36 | -0.5491 |
| `COC(=O)CCNC(=O)c1nnn(-c2ccc(F)cc2)c1C1CC1` | -1.652 | 1.724 | 11.37 | 3.571 | -0.1268 | 23.19 |
| `CN(Cc1cscn1)C1CCN(C(=O)OC(C)(C)C)CC1` | -4.444 | 2.381 | 3.781 | -0.2451 | -3.895 | -22.23 |
| `Cc1nc(CCC(=O)NC2CCC2)cc(C2CCCNC2)n1` (stereo not drawn) | - | 11.7 | 6.841 | 4.167 | 17.83 | 7.596 |
| `O=C(c1cc[nH]n1)N1CCOCC2(C1)CN(c1ccccc1)C(=O)CO2` (stereo not drawn) | -7.535 | 0.9524 | 0.9435 | 0.3699 | -12.36 | -5.471 |
| `CC(=O)c1sc(Nc2ccc(Cl)cn2)nc1C` | -0.5344 | 3.759 | -8.317 | 3.144 | 5.195 | -8.108 |
| `Cc1cc(C[C@@H]2COC[C@@H]2NC(=O)CN2CCCN(C)CC2)on1` | -3.92 | 1.653 | 2.701 | -20.68 | -1.652 | 8.412 |
| `Cc1cnn(CC(C)NCC(=O)Nc2ccc(Cl)cn2)c1` (stereo not drawn) | -2.144 | 6.024 | -1.624 | 0.2475 | 6.279 | -1.589 |
| `CCN1CCC2(CCC1=O)CN(c1nccc(N)n1)CCN2C` (stereo not drawn) | -5.901 | 4.469 | 3.648 | -0.7712 | -23.38 | 1.483 |
| `Cc1cc(C)cc(C(=O)NCCS(=O)(=O)N2CCSCC2)c1` | 0 | -2.632 | -4.546 | 11.37 | 7.934 | -32.85 |
| `O=C(Cn1cc(Cl)cn1)NCCN1CCC(O)(c2ccc(F)cc2)CC1` | -3.694 | 9.091 | 4.019 | -8.138 | -22.83 | 38.56 |
| `CCN1C(=O)CC[C@]12CC[C@@H](NC(=O)NCc1cccnc1)CC2.O=C(O)C(F)(F)F` | - | - | - | - | - | 10.13 |

For reference, 3 entries once more:

| compound | MtTrpRS | TcHisRS | PfKRS1 | CoaBC | Pks13 thioesterase | Leishmania in macrophages |
|---|---|---|---|---|---|---|
| `COc1ccc(-c2cnc(CN3CCCC3Cn3cccn3)o2)cc1` (stereo not drawn) | -0.6489 | 13.26 | 0.9982 | -45 | 11.09 | 18.68 |
| `CCn1ncnc1CN(CCOC)Cc1ccc(C)cc1` | 0.9356 | 6.145 | 4.305 | 0.8065 | 6.255 | 3.766 |
| `c1ccc(C2CCCN(c3cncc(-n4cccn4)n3)CC2)cc1` (stereo not drawn) | -3.177 | 8.621 | 2.146 | -3.571 | -14.4 | 12.57 |